In article PMC11809421:
Results are given in words; binding and its absence hold for the method and conditions named. For some of these results: In cells and extracts the contact can be indirect. Some binding calls cover weakened binding; strength is not graded here.

The chains behind the UniProt entries cited, without tags or fusion partners. Residues count along the entry.
UniProt Q61362, residues 30-389: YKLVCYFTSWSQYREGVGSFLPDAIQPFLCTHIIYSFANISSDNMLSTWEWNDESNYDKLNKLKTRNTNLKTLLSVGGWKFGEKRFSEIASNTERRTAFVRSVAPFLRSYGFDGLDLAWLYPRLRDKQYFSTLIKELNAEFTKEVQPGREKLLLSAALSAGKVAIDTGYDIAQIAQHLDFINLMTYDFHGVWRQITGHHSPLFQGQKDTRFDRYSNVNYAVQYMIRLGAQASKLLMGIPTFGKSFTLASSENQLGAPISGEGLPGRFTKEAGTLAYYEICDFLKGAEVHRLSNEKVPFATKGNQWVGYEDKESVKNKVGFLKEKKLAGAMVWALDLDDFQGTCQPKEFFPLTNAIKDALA
UniProt P36222, residues 22-383: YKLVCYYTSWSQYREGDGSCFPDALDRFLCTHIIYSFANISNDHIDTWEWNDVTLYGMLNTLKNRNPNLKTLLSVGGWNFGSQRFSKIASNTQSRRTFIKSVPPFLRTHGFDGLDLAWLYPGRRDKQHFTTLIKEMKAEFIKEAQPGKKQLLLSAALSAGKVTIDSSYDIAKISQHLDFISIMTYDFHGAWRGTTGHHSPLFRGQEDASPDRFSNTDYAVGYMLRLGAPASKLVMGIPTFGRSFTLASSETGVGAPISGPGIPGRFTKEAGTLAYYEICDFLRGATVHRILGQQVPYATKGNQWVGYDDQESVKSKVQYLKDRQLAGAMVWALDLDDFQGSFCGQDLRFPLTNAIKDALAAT

Key:
[1] = biological target: T1, interleukin‐17 receptor A, endogenous in dermal fibroblasts of BLM‐SSc mice (mouse (endogenous in dermal fibroblasts of BLM-SSc mice)) (UniProt Q60943); experiment: co-IP; dermal fibroblasts of BLM-SSc mice treated with mouse rChi3L1 for 10 min, rinsed, lysed; Pierce Co-IP kit; only the binder purified
T1 sequence: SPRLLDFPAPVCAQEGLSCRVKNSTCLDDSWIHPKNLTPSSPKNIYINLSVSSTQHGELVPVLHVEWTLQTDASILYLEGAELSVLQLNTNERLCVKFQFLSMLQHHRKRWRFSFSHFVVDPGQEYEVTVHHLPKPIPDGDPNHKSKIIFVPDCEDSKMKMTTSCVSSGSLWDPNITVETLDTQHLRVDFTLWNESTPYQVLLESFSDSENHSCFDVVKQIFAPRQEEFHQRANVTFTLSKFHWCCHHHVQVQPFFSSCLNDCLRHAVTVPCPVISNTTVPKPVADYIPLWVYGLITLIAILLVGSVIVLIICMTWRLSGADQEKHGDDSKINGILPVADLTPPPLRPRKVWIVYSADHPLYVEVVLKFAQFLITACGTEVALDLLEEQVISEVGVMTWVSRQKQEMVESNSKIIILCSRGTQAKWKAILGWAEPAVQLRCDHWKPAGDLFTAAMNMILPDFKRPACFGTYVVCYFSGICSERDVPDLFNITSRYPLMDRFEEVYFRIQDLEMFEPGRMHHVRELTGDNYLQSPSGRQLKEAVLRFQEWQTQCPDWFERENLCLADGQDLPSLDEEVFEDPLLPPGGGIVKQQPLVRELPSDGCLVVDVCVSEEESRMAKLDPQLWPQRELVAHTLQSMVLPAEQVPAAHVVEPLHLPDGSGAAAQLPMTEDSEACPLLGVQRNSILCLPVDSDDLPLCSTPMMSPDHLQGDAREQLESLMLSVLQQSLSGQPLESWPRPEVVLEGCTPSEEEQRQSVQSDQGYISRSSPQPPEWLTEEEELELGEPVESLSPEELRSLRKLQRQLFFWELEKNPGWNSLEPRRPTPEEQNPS

[2] = biological target: T2, recombinant interleukin‐17 receptor A (human) (human) (UniProt Q96F46); experiment: SPR; Biacore 8K; IL-17RA recombinant protein immobilised on Series S Sensor Chip CM5; Chi3L1 (15.625-1000 nmol/L) in running buffer injected as analyte; both purified
T2 sequence: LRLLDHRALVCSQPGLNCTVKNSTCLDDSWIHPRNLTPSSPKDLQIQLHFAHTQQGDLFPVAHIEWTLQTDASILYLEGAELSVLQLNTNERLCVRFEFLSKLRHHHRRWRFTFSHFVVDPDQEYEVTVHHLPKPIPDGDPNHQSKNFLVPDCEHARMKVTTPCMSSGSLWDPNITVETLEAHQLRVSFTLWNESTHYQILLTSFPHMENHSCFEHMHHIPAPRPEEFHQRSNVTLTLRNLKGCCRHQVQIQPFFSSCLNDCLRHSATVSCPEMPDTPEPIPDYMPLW

[3] = biological target: T3, interleukin‐17 receptor A, endogenous in dermal fibroblasts of SSc patients (human (endogenous in SSc dermal fibroblasts)) (UniProt Q96F46); experiment: co-IP; SSc dermal fibroblasts treated with human rChi3L1 for 10 min, rinsed, lysed (Tris pH 7.4, 150 mM NaCl, 1 mM EDTA, 1% NP40, 5% glycerol); Pierce Co-IP kit; IP with anti-IL-17RA and blot for Chi3L1, and vice versa; only the binder purified
T3 sequence: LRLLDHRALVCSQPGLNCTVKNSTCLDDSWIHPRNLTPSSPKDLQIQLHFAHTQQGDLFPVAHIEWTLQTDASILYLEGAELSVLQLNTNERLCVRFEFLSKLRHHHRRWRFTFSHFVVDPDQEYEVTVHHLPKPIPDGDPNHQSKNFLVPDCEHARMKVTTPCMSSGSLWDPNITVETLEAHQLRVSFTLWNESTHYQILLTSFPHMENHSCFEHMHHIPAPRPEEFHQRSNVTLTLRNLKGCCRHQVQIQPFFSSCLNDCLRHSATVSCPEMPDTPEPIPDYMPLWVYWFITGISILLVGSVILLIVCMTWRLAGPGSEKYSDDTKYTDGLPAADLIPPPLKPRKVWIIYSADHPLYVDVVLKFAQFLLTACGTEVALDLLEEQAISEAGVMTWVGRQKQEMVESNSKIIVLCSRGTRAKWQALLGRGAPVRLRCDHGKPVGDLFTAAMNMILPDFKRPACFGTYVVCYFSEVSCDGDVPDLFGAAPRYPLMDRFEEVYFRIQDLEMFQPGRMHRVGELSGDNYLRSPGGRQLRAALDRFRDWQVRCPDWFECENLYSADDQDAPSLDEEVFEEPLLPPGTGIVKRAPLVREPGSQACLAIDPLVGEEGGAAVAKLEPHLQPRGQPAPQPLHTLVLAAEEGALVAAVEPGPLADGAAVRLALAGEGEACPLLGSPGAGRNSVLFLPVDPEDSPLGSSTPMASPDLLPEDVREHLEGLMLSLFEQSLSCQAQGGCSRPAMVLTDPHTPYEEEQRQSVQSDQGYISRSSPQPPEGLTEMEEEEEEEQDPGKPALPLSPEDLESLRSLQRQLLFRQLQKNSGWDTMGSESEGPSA

[4] = biological target: T2, recombinant interleukin‐17 receptor A (human) (human); experiment: co-IP; cell-free, in tube: 5 ug human rChi3L1 and 5 ug human rIL-17RA mixed in lysis buffer, shaken at 4 °C overnight, then Co-IP (Pierce Co-IP kit); both purified

Substance | binding [1] | binding [2] | binding [3] | binding [4]
recombinant chitinase 3‐like 1 (mouse) (from UniProt Q61362 30-389) (ligand) | binds |  |  | 
recombinant chitinase 3‐like 1 (human) (from UniProt P36222 22-383) (ligand) |  | binds | binds | binds
